Assay results as given in patent US20220185876A1 (ATARGA, published 2022).
Positions count from the first letter of the chain named. Results are given in words; binding and its absence hold for the method and conditions named. Some results given as binding are weak or reduced against the parent protein; the word gives no strength. One block for each binder: values may come before it.

Columns and labels:
human FGF23 [1] = molecular target: T1, human FGF23 (human, UniProt Q9GZV9 25-251); assay: ELISA binding to human FGF23
T1 sequence: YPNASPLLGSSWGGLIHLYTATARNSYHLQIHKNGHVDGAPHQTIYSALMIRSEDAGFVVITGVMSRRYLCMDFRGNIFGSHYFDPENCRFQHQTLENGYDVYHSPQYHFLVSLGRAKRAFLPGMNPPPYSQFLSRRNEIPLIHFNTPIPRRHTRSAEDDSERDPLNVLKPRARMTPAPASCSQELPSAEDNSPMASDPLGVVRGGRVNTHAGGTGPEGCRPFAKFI

human FGF23 [2] = molecular target: T1, human FGF23; assay: ELISA binding to human FGF23 (FIG. 2A)
human FGF23 [3] = molecular target: T1, human FGF23; assay: ELISA binding to human FGF23 (FIG. 2B)

B1: ExA11 (antibody, V domains shown)
VH: QVQLVQSGAELKKPGASVKVSCKASGYTFTNHYMHWVRQAPGQGLEWMGIINPISGSTTYAQKFQGRVTMTRDTSSSTAYMDLSRLTSDDTAVYYCARDIVDAFDFWGQGTTVTVSS
VL: AIQLTQSPSSLSASVGDRVTITCRASQGISSALVWYQQKPGQAPRLLIYDASSLESGIPARFSGSGSGTDFTLTISSLEPEDFAVYYCQQFNDYFTFGQGTKLEIK
notes: Monoclonal anti-FGF23 antibody
binding (human FGF23 [1]): binds | binding (human FGF23 [2]): binds

B2: ExA35 (antibody, V domains shown)
VH: QVQLLESGAVLARPGTSVKISCKASGYTFTNHYMHWVKQRPGQGLEWIGIINPITGSSSNAQKFQGRVTITRDTSTSTVFMELSSLRSEDTAVYYCARDIVDAFDFWGQGTLVTVSS
VL: B1 VL
notes: as for B1
binding (human FGF23 [1]): binds | binding (human FGF23 [2]): binds

B3: ExC50 (antibody, V domains shown)
VH: B2 VH with T28S, I100L
VL: B1 VL with A1D, E55Q
notes: as for B1
binding (human FGF23 [1]): binds | binding (human FGF23 [2]): binds

B4: Exc23 (antibody, V domains shown)
VH: EVQLVQSGAEVRKPGASVKVSCKASGYTFTNHYMHWVRQAPGQGLEWMGIINPISGSTSNAQKLQGRVTFTRDTSANTAYMELSGLIPEDTAIYYCARDIVDAFDFWGQGTLVTVSS
VL: DIQMTQSPSSLSASVGDRVTITCKASQGISSALVWYQQKPGKAPKLLIYDASSLQTGVPSRFSGSGSGTDFTFTISSLQPEDIATYYCQQFNDYFSFGPGTKLEIK
notes: as for B1
binding (human FGF23 [1]): binds | binding (human FGF23 [3]): binds

B5: ExC17 (antibody, V domains shown)
VH: B4 VH
VL: B1 VL with A1D, E55Q, Y94L
notes: as for B1
binding (human FGF23 [1]): binds | binding (human FGF23 [2]): binds

B6: ExA43 (antibody, V domains shown)
VH: B4 VH with D99E
VL: B1 VL
notes: as for B1
binding (human FGF23 [1]): binds | binding (human FGF23 [2]): binds

B8: ExA60 (antibody, V domains shown)
VH: B4 VH with T28S, I54N, F106Y
VL: B4 VL with D1A, K24R, Q55E, T56S, S96T
notes: as for B1
binding (human FGF23 [1]): binds | binding (human FGF23 [2]): binds

B11: ExA28 (antibody, V domains shown)
VH: B4 VH
VL: B4 VL with D1A, K24R, Q55E, T56S, S96T
notes: as for B1
binding (human FGF23 [1]): binds | binding (human FGF23 [2]): binds

Other lines, results leading:

binding (human FGF23 [1]): binds | binding (human FGF23 [3]): binds
B7: Exc23.3 (antibody, V domains shown)
VH: B4 VH
VL: B4 VL with S96T
notes: as for B1

binding (human FGF23 [1]): binds | binding (human FGF23 [3]): binds
B9: Exc23.5 (antibody, V domains shown)
VH: B4 VH
VL: B4 VL with D1A
notes: as for B1

binding (human FGF23 [1]): binds | binding (human FGF23 [3]): binds
B10: Exc23.4 (antibody, V domains shown)
VH: B4 VH
VL: B4 VL with K24R
notes: as for B1

binding (human FGF23 [1]): binds | binding (human FGF23 [3]): binds
B12: Exc23.2 (antibody, V domains shown)
VH: B4 VH
VL: B4 VL with T56S
notes: as for B1

binding (human FGF23 [1]): binds | binding (human FGF23 [3]): binds
B13: Exc23.1 (antibody, V domains shown)
VH: B4 VH
VL: B4 VL with Q55E
notes: as for B1
